# From PubChem BioAssay AID624415 (National Center for Advancing Translational Sciences (NCATS), 2012)
# Sequences of proteins named here, by UniProt entry; tags and fusion partners are left off.
# UniProt Q9GZU1, whole entry, looked up: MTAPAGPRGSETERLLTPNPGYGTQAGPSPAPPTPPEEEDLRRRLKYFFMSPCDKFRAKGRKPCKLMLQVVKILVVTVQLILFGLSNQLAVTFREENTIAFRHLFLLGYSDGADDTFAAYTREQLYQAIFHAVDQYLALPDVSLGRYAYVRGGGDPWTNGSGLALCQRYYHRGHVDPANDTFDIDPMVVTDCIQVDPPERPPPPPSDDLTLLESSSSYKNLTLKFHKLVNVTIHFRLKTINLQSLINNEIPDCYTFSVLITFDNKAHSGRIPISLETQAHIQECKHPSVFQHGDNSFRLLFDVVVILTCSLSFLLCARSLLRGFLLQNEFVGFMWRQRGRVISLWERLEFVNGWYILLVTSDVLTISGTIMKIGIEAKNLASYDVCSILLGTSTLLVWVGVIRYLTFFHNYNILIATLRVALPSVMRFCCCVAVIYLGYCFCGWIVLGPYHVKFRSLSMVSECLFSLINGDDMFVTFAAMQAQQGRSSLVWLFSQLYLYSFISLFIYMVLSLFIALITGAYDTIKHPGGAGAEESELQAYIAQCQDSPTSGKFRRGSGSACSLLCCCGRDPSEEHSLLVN
# The whole screen tested about 390,000 compounds, of which about 60 (0.02%) were called active. The shares of active, inactive and inconclusive entries below differ from those in the screen. Rule as the data show it: active = activity change below about -50%; inconclusive = between about -30% and that limit; inactive = weaker than that.
# Biological target: Mucolipin-1 (Homo sapiens) (UniProt Q9GZU1)
# Test: qHTS for Inhibitors of the Human Mucolipin Transient Receptor Potential 1 (TRPML1);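 also: stimulus is agonist 54-4 at its EC80 concentration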
# Conditions: TRPML1-inducible cells, Ca2+ dye fluorescence, FDSS; stronger effect = lower value; inhibition of EC80 agonist-evoked calcium signal
# Procedure, shortened: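 Tet-induced TRPML1-DL cells loaded with Ca8 no-wash calcium dye were read kinetically on FDSS. Compound addition was followed by EC80 agonist 54-4 (4 uM final); inhibition was read over 110 s.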
# % is scaled to controls: 0 for no effect and ±100 for the full control effect.
row,Compound,"activity change, negative = inhibition"
1,COC(=O)[C@@]1(Cc2ccccc2)[C@H]2C(=O)N(C)C(=O)[C@H]2[C@H]2CN=C(SCC3CC3)N21,inconclusive: -32.8%
2,COc1cc(Cl)c(S(=O)(=O)N2CCN(c3c(C)cccc3C)CC2)cc1Cl,inactive: 21.7%
3,CN(Cc1ccccc1)C(=O)c1c[nH]c2ccc(S(=O)(=O)Nc3ccccc3F)cc2c1=O,inconclusive: -37.4%
4,CC1(C)Cc2ccccc2-c2nc(NN)[nH]c(=O)c21,inconclusive: -31%
5,COc1ccc(CCNC(=O)c2ccccc2Cl)cc1OC,inconclusive: -30.3%
6,COc1ccc(C2c3[nH]c4ccccc4c3CCN2C(=O)c2ccc(=O)n(C)n2)c(F)c1 (stereo unspecified),inconclusive: -32.9%
7,CN(CC(=O)Nc1ccccc1Sc1ccccc1)C1CCCCC1,inconclusive: -30.2%
8,COC(=O)[C@@H](CC(C)C)N(Cc1ccccc1)S(=O)(=O)N(Cc1ccccc1)[C@@H](CC(C)C)C(=O)OC,inconclusive: -38.2%
9,N=c1c(S(=O)(=O)c2ccc(Cl)cc2)cc2c(=O)n3ccccc3nc2n1C1CCCCC1,inconclusive: -38.7%
10,CCc1nc2c(OCc3ccc(F)cc3)cccn2c1N(C)C(=O)c1ccco1,inactive: -0.0251%
11,O=C1Nc2ccccc2CCC1Sc1nnc(-c2ccc(Cl)cc2)s1 (stereo unspecified),inactive: 0.709%
12,CCOC(=O)N1CCC(c2cc(=O)n3[nH]c(C)c(-c4ccc(F)cc4)c3n2)CC1,inconclusive: -37.7%
13,Cc1ccc(NC(=O)c2nc[nH]c2C(=O)Nc2ccc(C)cc2)cc1,inactive: 16.3%
14,Cc1ccc(C)c(-n2c3nc(=O)n(C)c(=O)c-3cc3ccccc32)c1,inconclusive: -34.2%
15,Cc1ccc(C(C)(C)C)cc1S(=O)(=O)Nc1cccc(S(=O)(=O)NC2=NCCC2)c1,inconclusive: -31.9%
16,COc1cccc(CNS(=O)(=O)c2ccc3c(c2)CC(C)N3C(=O)C2CCC2)c1 (stereo unspecified),inconclusive: -32.2%
17,COC(=O)COn1c(SCC(=O)OC)nc2ccccc2c1=O,inconclusive: -38.1%
18,COc1ccc(Nc2nc(C)cc(C)c2C#N)cc1OC,inconclusive: -30.1%
19,CCOn1c(=O)c(-c2ccccc2)[n+]([O-])c2ccccc21,inconclusive: -33.3%
20,CCc1ccc(NC(=O)CSc2ccc(-c3cccnc3)nn2)cc1,inconclusive: -38%
21,Cc1nc2ccccn2c1-c1ccnc(=S)[nH]1,inactive: 14.3%
22,COc1ccc(-n2c(=O)c3c4c(sc3n(Cc3ccc(C)cc3C)c2=O)CCC4)c(OC)c1,inactive: -15.9%

# Exported as tab-separated lines: entries from further up
row	Compound	activity change, negative = inhibition
8	COC(=O)[C@@H](CC(C)C)N(Cc1ccccc1)S(=O)(=O)N(Cc1ccccc1)[C@@H](CC(C)C)C(=O)OC	inconclusive: -38.2%
9	N=c1c(S(=O)(=O)c2ccc(Cl)cc2)cc2c(=O)n3ccccc3nc2n1C1CCCCC1	inconclusive: -38.7%
10	CCc1nc2c(OCc3ccc(F)cc3)cccn2c1N(C)C(=O)c1ccco1	inactive: -0.0251%
11	O=C1Nc2ccccc2CCC1Sc1nnc(-c2ccc(Cl)cc2)s1 (stereo unspecified)	inactive: 0.709%

# Further compounds

row,Compound,"activity change, negative = inhibition"
1,COc1ccc(OC)c(CNC(=O)Cn2ncc3c([nH]c4ccc(C)cc43)c2=O)c1,inconclusive: -38%
2,COc1ccccc1Nc1nc(C)cc(C)n1,inconclusive: -30.9%
3,Cc1cc(C)nc(SCC(=O)OCC(=O)Nc2nc3ccccc3s2)n1,inconclusive: -30.5%
4,NC(=O)C1CCN(CC(=O)Nc2ccccc2Sc2ccc(Cl)cc2)CC1,inconclusive: -34.7%
5,O=C(Nc1ccc(F)cc1)c1ccc(-n2cnnc2)cc1,inconclusive: -36.1%
6,CCOC(=O)/C=c1\s/c(=C\c2ccc(C(F)(F)F)cc2)c(=O)n1CC(=O)NCc1ccco1,inconclusive: -32.1%
7,CCC[N+](CC#Cc1ccccc1)(CCC)CC(=O)OCC,inactive: 54.4%
8,CC1CCN(C(c2cc3cc4c(cc3[nH]c2=O)OCO4)c2nnnn2CC2CCCO2)CC1 (stereo unspecified),inconclusive: -35.9%
9,COc1ccc(-n2ncc(C(=O)Nc3ccc(C)cc3Cl)c2C2CCN(C(=O)OC(C)(C)C)CC2)cc1,inconclusive: -31.5%
10,Cc1ccccc1NC(=O)Cc1cccc(C(F)(F)F)c1,inconclusive: -32.4%
11,Cc1cc([N+](=O)[O-])nn1CC(=O)NCc1nc2ccccc2[nH]1,inconclusive: -33.7%
12,O=C1C(Cl)=C(NCCCN2CCOCC2)C(=O)N1CCc1ccccc1,inactive: 17.9%
13,COc1ccc(Cc2nnc(NC(=O)c3cc(OC)cc(OC)c3)s2)cc1,inconclusive: -31.3%
14,Cc1nn(-c2ccc(F)cc2)c(C)c1/C=C/C(=O)N1CCNC(=O)C1,inconclusive: -32.8%
15,C[C@H](O)[C@@H]1C(=O)N2CCc3c([nH]c4ccccc34)[C@@H]2C[C@@H]1N(C)C(=O)Nc1ccccc1,inconclusive: -31.3%
16,O=C(Nc1ccccc1)/C(=C\c1ccc2c(c1)OCO2)NC(=O)c1ccco1,inactive: 3.22%
17,C#CCn1cc(/C=N/Nc2nc3ccccc3[nH]2)c2ccccc21,inconclusive: -33.6%
18,CCOC(=O)N1CCN(C(=O)/C=C/c2ccc(OC)cc2)CC1,inconclusive: -40%
19,CCOc1ccc(CCNC(=O)CCc2c(C)nc3c4c(C)cc(C)nc4nn3c2C)cc1,inconclusive: -45.1%
20,CC(C)OCCCNC(=O)CN1C(=O)CC(C)(C)S(=O)(=O)c2ccccc21,inconclusive: -36.4%
21,O=[N+]([O-])c1ccc(-c2nc(-c3ccncc3)no2)cc1,inactive: -9.85%
22,CCS(=O)(=O)NCC(c1ccco1)N1CCN(c2ccccc2)CC1 (stereo unspecified),inconclusive: -34.4%

row,Compound,"activity change, negative = inhibition"
1,CC1(C)Cc2ccccc2-c2nc3ccccc3c(=O)n21,inactive: 3.6%
2,COC(=O)c1sccc1NC(=S)N1C(C)CCCC1C (stereo unspecified),inconclusive: -34.8%
3,CCCCN1CC(COCc2ccccc2)Oc2ccccc2S1(=O)=O (stereo unspecified),inactive: 53.5%
4,COc1cccc(CN(C)CC(=O)NNC(=O)c2ccc(Cl)cc2)c1,inconclusive: -33.5%
5,CCOC(=O)c1ccc2c(c1)N(CC(=O)N1CCCCC1)C(=O)C(C)(C)O2,inactive: 26.2%
6,Cn1nc(N)nc1N1CCN(c2ccc(F)cc2)CC1,inconclusive: -34.9%
7,COc1ccc(C(C)(C)C)cc1NC(=O)C1CCCO1 (stereo unspecified),inconclusive: -32.7%
8,Cc1ccc(C(=O)C2=C(O)C(=O)N(Cc3ccco3)C2c2cccc(Br)c2)o1 (stereo unspecified),inactive: -27.1%
9,COC(=O)[C@H](CCSC)NC(=O)c1cccnc1SC,inconclusive: -44%
10,O=C(O)c1ccccc1-c1c2cc(I)c(=O)c(I)c-2oc2c(I)c(O)c(I)cc12,active: -89.8%
11,CCCOc1ccc(/C=C2\SC(=S)N(CC3CCCO3)C2=O)cc1 (stereo unspecified),inactive: 21.7%
12,Cc1ccccc1S(=O)(=O)Cc1ccc(C(=O)NC(C)c2ccccc2)o1 (stereo unspecified),inconclusive: -31.3%
13,Cc1cccc(Nc2cc(C)nc3nc(Cc4ccc(Cl)cc4)nn23)c1,inconclusive: -37.1%
14,CCc1ccccc1NC(=S)N(CCN(C)C)Cc1cccs1,inconclusive: -33.1%
15,COc1cccc(/C=C2\SC(=S)N(N3C(=O)CCCC3=O)C2=O)c1,inconclusive: -34.3%
16,CC(C)CNS(=O)(=O)c1ccc(CCC(=O)NC2CCCC2)cc1,inconclusive: -40.3%
17,O=C(CN1C(=O)CCc2cc(S(=O)(=O)N3CCOCC3)ccc21)NCc1ccccc1Cl,inactive: 0.99%
18,CNC(=O)c1c(O)c2cccc3c2n(c1=O)CCC3,inactive: -17.1%
19,Cc1cc(=O)n2c(sc3ccccc32)c1C#N,inconclusive: -31%
20,Cn1c(=O)c(NC2CCCCC2)c2c3c(cccc31)C(=O)c1ccccc1-2,inconclusive: -31.6%
21,Cc1cccc(N=C2NC(=O)/C(=C/C=C/c3ccco3)S2)c1C,inactive: 2.92%
22,CN(C)S(=O)(=O)Nc1cccc(-c2cn3c(n2)SCC3)c1,inactive: 37.4%

row,Compound,"activity change, negative = inhibition"
1,CN1C(=O)C(CC(=O)Nc2ccc(F)cc2)N(Cc2ccco2)C1=S (stereo unspecified),inconclusive: -36.8%
2,Cc1c(/C=N\NC(=O)c2cc3ccccc3o2)c2ccccc2n1C,inconclusive: -32.6%
3,COc1ccc(-c2c(C)n([O-])c(C)c(-c3ccccc3)[n+]2=O)cc1OC,inconclusive: -31.1%
4,Clc1cccc(CSc2ccc(-c3cccs3)nn2)c1,inconclusive: -35.7%
5,COc1ccc(-c2ccc(CCC(=O)O)n2CC(=O)Nc2cccc(Cl)c2C)cc1,inactive: 14.9%
6,CCOc1ncccc1C(=O)Nc1cc(S(=O)(=O)N2CCCCC2)ccc1C,inconclusive: -33%
7,O=C1C2=C(CCCC2)C(=O)N1c1cccc(OCCBr)c1,inconclusive: -37.5%
8,COc1cc2nc(Cl)nc(N3CCCCC3)c2cc1OC,inconclusive: -33.8%
9,Cn1cc(S(=O)(=O)NCc2ccc(Cl)cc2)c(=O)n(C)c1=O,inconclusive: -34.2%
10,COc1ccc([N+](=O)[O-])cc1N1C(=O)c2cccnc2C1=O,inconclusive: -30.9%
11,CCOc1ccc(Br)cc1C1=NN(C(C)=O)C(c2ccc([N+](=O)[O-])s2)O1 (stereo unspecified),inactive: 9.03%
12,CC1=C(c2ccc(C)c(C)c2)S(=O)(=O)N=C1N1CCC(C(=O)NCc2ccc(C)o2)CC1,inactive: -12.1%
13,CCN(CC)c1ccc(N=Cc2c(C)[nH]c3ccccc23)cc1,inconclusive: -30.9%
14,CN(CCO)c1ccc(C=NNc2ccc([N+](=O)[O-])cc2S(=O)(=O)Nc2ccccc2C(=O)O)cc1,inconclusive: -34.8%
15,CC(C)CCC(CCN1CCCC1)c1ccc2c(c1)OCO2 (stereo unspecified),inactive: -13.3%
16,N#C/C(=C/c1ccccc1)C(=O)NCc1ccccc1,inactive: -3.92%
17,Cc1cc(N2CCCC2)ccc1/C=C1\NC(=S)N(C)C1=O,inactive: -7.45%
18,Cc1ccc(C(=O)NC2CCC(C)CC2)s1 (stereo unspecified),inactive: 10.6%
19,CCN1CCN(C(=O)CCc2nnc(CCc3ccc(OC)cc3)o2)[C@@H](C)C1=O,inconclusive: -36.5%
20,CCOc1ccc(NC(=O)Nc2cc(C(=O)O)ccc2N2CC3CC(C2)c2cccc(=O)n2C3)cc1 (stereo unspecified),inconclusive: -35%
